Results of single-concentration screens

Sequences of proteins named here, by UniProt entry; tags and fusion partners are left off. Residues count along the entry.
UniProt Q8IDJ8, 1-583: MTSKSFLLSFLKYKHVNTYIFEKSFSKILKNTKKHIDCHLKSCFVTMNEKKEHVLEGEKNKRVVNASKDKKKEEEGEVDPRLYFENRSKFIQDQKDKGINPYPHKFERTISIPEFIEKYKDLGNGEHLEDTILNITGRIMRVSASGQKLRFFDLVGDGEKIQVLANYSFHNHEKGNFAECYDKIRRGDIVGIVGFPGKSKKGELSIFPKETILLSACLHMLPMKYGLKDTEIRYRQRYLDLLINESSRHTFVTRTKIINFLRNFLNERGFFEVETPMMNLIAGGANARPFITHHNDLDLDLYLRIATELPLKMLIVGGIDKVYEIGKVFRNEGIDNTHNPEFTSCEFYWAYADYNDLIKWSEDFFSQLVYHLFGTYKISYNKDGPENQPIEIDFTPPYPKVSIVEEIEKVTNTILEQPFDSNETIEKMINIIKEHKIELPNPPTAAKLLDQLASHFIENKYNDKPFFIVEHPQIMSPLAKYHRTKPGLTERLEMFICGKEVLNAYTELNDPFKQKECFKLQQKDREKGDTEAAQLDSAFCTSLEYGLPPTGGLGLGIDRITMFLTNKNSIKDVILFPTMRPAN
UniProt I6X8D2, whole entry: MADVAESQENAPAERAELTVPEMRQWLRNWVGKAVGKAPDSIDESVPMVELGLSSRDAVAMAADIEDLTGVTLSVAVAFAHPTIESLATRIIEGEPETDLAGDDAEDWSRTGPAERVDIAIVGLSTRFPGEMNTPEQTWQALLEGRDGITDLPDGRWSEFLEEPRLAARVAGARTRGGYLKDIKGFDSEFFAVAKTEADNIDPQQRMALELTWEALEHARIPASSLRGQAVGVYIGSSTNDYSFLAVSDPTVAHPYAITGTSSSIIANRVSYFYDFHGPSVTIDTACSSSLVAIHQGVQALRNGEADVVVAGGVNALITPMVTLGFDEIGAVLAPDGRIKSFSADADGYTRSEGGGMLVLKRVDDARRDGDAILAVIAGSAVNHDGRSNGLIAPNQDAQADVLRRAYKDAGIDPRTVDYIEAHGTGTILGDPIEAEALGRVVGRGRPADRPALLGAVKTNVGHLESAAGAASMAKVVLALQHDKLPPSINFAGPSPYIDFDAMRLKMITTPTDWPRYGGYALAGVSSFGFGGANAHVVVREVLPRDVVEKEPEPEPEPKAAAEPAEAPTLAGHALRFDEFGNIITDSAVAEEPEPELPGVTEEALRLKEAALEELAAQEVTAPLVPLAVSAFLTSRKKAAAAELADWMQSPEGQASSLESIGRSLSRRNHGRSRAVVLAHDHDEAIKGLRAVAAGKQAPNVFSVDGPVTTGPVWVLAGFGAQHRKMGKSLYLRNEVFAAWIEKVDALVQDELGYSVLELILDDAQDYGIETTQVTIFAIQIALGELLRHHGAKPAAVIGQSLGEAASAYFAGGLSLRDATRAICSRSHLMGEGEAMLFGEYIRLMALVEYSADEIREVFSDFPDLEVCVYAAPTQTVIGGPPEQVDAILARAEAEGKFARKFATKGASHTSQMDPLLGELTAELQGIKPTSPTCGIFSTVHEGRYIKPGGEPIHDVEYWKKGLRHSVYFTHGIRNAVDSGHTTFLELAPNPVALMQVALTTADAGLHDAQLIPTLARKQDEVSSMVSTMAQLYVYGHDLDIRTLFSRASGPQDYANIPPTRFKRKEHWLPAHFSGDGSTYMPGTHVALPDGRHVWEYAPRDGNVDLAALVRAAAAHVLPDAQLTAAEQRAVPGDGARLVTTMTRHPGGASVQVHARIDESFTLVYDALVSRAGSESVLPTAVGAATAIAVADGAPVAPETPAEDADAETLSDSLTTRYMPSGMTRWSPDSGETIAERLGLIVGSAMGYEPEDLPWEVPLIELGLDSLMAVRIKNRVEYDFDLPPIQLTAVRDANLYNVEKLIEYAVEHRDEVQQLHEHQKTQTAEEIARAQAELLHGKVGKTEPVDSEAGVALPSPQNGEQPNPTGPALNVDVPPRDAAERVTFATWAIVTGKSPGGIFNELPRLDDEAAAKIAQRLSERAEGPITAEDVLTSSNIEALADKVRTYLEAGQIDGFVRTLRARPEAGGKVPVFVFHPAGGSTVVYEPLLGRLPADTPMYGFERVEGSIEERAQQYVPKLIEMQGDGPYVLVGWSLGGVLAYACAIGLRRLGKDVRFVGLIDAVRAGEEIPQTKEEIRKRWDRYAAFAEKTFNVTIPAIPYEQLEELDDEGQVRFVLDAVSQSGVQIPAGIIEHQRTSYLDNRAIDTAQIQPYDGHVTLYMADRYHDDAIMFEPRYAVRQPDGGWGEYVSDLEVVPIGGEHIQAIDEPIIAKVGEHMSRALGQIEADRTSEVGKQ
UniProt P9WPC5, whole entry: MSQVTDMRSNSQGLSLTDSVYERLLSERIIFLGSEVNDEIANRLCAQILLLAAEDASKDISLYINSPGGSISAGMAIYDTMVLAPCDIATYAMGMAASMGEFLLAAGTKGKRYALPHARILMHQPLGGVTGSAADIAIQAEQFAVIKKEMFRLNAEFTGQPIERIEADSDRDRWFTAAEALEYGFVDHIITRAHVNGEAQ
UniProt P9WPC3, whole entry partner: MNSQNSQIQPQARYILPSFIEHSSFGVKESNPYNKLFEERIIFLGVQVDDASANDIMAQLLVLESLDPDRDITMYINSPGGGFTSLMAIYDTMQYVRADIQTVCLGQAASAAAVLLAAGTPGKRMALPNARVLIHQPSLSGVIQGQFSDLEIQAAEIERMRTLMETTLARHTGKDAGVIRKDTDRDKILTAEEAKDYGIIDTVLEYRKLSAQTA

Source: ChEMBL document CHEMBL3988442, “University of Dundee, Small-Polar-MMV Screening Library” (2021).

A: 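Lysine-tRNA ligase, Plasmodium falciparum 3D7 (UniProt Q8IDJ8). Enzyme assay of the cytosolic lysyl-tRNA synthetase in 384-well plates, read by luminescence. Concentration: 30 µM. Direction is inferred from only a few compounds that gave an IC50; most scored high, so higher reads as stronger inhibition. Of about 69,000 compounds tested this way, about 49 (0.071%) reached 50% or more in at least one test.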
B: 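Polyketide synthase Pks13, Mycobacterium tuberculosis (UniProt I6X8D2). Enzyme assay of the thioesterase domain of polyketide synthase 13; the read-out is not stated. Concentration: 30 µM. Higher reads as stronger inhibition (inferred from which compounds were picked for retests). Size under these conditions: about 67,000 compounds, about 300 of them at 50% or above in at least one test.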
C: 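Protease assay of ClpP1P2, read by the AMC dye that it sets free. Target: ClpP1P2, Mycobacterium tuberculosis (UniProt P9WPC5 and UniProt P9WPC3). Tested at 50 µM. Higher reads as stronger inhibition, judged from the few compounds that gave an IC50. Most other retested compounds had strongly negative values. Size under these conditions: about 69,000 compounds, about 10 of them at 50% or above in at least one test.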

Results are given as percent effect. The controls that fix the scale are not given in the record; negative values are as filed. Compounds were drawn at random from those tested, without regard to their results. A dash means the value is not listed here; it may have been measured.

structure	A	B	C
O=S(=O)(NCc1ccnc(-n2ccnc2)c1)c1cncc(F)c1	8.431	-35.9	-5.246
COc1cccc(CNCc2cccc(Cl)c2)c1O	1.045	-6.075	-1.136
CCc1cnc(N2C[C@H]3CN(Cc4csc(C)n4)C(=O)[C@H]3C2)nc1	-2.035	-30.05	2.513
CCN(CC)c1ccc(CNC(=O)N2CCC(C#N)CC2)cc1	5.329	5.479	10.68
Cc1cc(C)nc(N2CCC(C(=O)O)(n3ccc(C(C)(C)C)n3)CC2)n1	3.305	-13.76	-29.05
Cc1nc2[nH]cnc(Nc3cc(C)n(C)n3)c-2n1	-0.3305	2.385	2.93
NCC1CN(c2nc(-c3ccccc3)nc3c2CCNCC3)CCO1 (stereo not shown)	0.4688	-27.68	-8.326
CN(C(=O)Cn1nc(-c2ccc(F)cc2)oc1=O)C1CCS(=O)(=O)C1 (stereo not shown)	0.7387	-14.29	9.235
Cc1nc(NCCSc2cnn[nH]2)c2cccnc2n1	-1.277	-215.8	3.686
Cn1cc(C(=O)N2CCCC(Cc3cnccn3)C2)cn1 (stereo not shown)	4.066	-1.8	3.157
Cc1nnc(C(C)NCC2(c3ccc(F)cc3)CCCCC2)o1 (stereo not shown)	2.05	-6.072	16.73
COc1nc2c(cc1C(=O)NCCc1nc3c(s1)CCC3)CCC2	2.839	-42.58	9.869
Cc1cnn(-c2cncc(C(N)=O)c2)c1	6.009	-	-16.38
Cc1ccc(C)c(NC(=O)N(C)Cc2cnn(C)c2)c1	3.901	-4.334	14.45
CCCN(CCc1ccccc1)c1ncnc2oc(C)nc12	1.263	-12.78	-8.118
Cc1cccc(C(=O)NCc2ccc(S(N)(=O)=O)cc2)n1	3.327	-10.61	6.25
c1csc(-c2noc(CNC3CCc4ncnn4C3)n2)c1 (stereo not shown)	0.5035	-8.197	-17.31
Cc1ncsc1COC(=O)c1cccc2c1OCCO2	-2.596	-4.742	-5.434
COC(=O)CN(C(=O)c1cc(C(C)C)no1)c1cccc(F)c1	2.538	-4.872	3.262
COCCN1C[C@@H](C)[C@@]2(COCCN(C(=O)c3cnc(C)cn3)C2)C1	4.058	-22.25	17.7
Cc1nn(C(C)(C)C)c(C)c1C(=O)NCC1(C(N)=O)CCOCC1	3.756	-10.87	-3.511
Cc1c[nH]nc1C1CCN(S(=O)(=O)N(C)C)CC1	-0.9645	-34.37	-6.672
O=C(c1cc(CC2(NCC3CCCCC3)COC2)no1)N1CCCCC1	6.421	-28.69	-0.4422
Cn1cc(N2CCC(NC(=O)c3ccccc3Cl)C2=O)cn1 (stereo not shown)	2.659	3.718	-18.42
CN(C)C(CNC(=O)NCCc1cccc(O)c1)c1ccco1 (stereo not shown)	5.324	-13.13	-12.7
CC(C)CCN1C[C@H]2C[C@H](C(=O)NCC(C)C)[C@@H](C1)O2	5.204	7.606	5.731
N#Cc1ccc(C(=O)O)nc1/C=C/c1cccc(F)c1	1.206	-26.42	-15.2
CC(C)Cn1ncc(C(=O)NS(=O)(=O)c2ccccc2)c1C1CC1	8.48	-16.42	-1.587
Cc1nc(-n2cnnc2)ccc1-c1cccc2c1CCNC2	-0.5543	3.093	7.583
COc1cc(OC)cc(N2CCC(NCc3cccs3)C2=O)c1 (stereo not shown)	1.78	-13.83	-17.88
CN(Cc1cnn(C)c1)C(=O)NCCc1ccc2c(c1)OCO2	1.184	-9.53	-8.695
NC(=O)C1CNCCN1C(=O)COc1ccccc1 (stereo not shown)	1.037	7.145	-8.013
Cn1ncc2c(NCC3CCS(=O)(=O)C3)nc(-c3ccncc3)nc21 (stereo not shown)	-2.965	-7.806	11.46
O=C(NCC1CCOC1)Nc1ccc(OCC(F)(F)F)nc1 (stereo not shown)	0.422	-7.022	2.861
CN(Cc1nc(N2CCCC2)ncc1-c1ccncc1)C(=O)C(C)(C)C	2.448	-23.25	-6.43
CCn1cc2c(n1)CN(Cc1sccc1C)CC2COCC1CC1 (stereo not shown)	3.088	-12.06	-7.326
Cc1cc(C(=O)NC(C)CC(=O)c2ccco2)[nH]n1 (stereo not shown)	-1.557	-2.832	-13.56
O=C(NC1CC1)N1CC[C@@H](O)[C@@H]1Cc1ccccc1	0.9117	-14.56	-8.371
NC(=O)[C@@H]1Cc2ccccc2CN1CCc1cccs1	3.588	-24.11	2.552
CN(CCc1cccs1)C1CCCN(Cc2noc(C3CC3)n2)C1 (stereo not shown)	0.387	20.75	6.051
O=C(O)c1ccccc1CN1CCC2(Cc3ccccc3CNC2=O)C1 (stereo not shown)	5.789	-7.898	-2.042
COc1cc(CC(=O)Nc2cccc(C(=O)N(C)C)n2)ccc1C	3.877	-16.56	-4.629
CC(C)C(C(=O)N1CCCN(c2nccs2)CC1)n1cncn1 (stereo not shown)	1.279	1.177	1.572
N#Cc1c(Cl)nsc1N1CCN(CC2CCCCC2)CC1	5.229	0.1244	-4.049
COCCS(=O)(=O)Nc1cc(Cl)ccn1	-1.773	-	11.47
CN1CCCCC12CCN(c1nncs1)C2 (stereo not shown)	-2.662	-29.48	6.126
COc1ccc(CNCc2c(C(C)C)nn(C)c2OC)cn1	-0.9474	-15.91	-16.31
CN(C)c1cc(N2CCN(c3ccccn3)CC2)ncn1	-1.81	-16.09	-11.68
CC(=O)N1CCCN(C(=O)NCCCn2cncn2)CC1	0.5414	-8.919	-24.52
CCS(=O)(=O)N1C[C@@H](OCc2cccnc2)[C@H]2OCCC[C@H]21	-1.852	-11.44	-4.985
CNC(=O)c1ccc(C(=O)N2CCCC(n3cc(C)cn3)C2)cn1 (stereo not shown)	-4.324	-20.45	10.33
O=C(c1cnccn1)N1CCC2(CC1)CC(Oc1ccccc1)CO2 (stereo not shown)	-0.1766	-6.58	-2.722
c1nc(N2CCCCC2Cn2cncn2)c2ccsc2n1 (stereo not shown)	-3.092	-25.1	-18.38
Cc1nc(C)n(CC(C)C(=O)N2CCC(NS(C)(=O)=O)CC2)n1 (stereo not shown)	-3.489	-22.05	-11.92